From PubChem BioAssay AID1347426 (Functional Genomics Laboratory (NCATS/FGL), 2020)
Among all 31,000 sequences or so, about 1,400 (4.5%) were called active.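 The calls were made as follows: active = median seed-adjusted z-score above 1 or below -1; inactive = the rest.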 Some of the results follow.

Assay: Novel Modifiers of Survival Motor Neuron (SMN) Protein: Gene Identification via Genome-wide siRNA Screen;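 also: luminescence tracks full-length SMN protein made from the SMN2 reporter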
Settings: HEK293T SMN2-luciferase reporter, siRNA knockdown, 72 h; actives lie on both sides
Summary of the method: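 HEK293T cells stably expressing an SMN2 splicing/cDNA-luciferase reporter were reverse-transfected with a druggable-genome siRNA library and read by luminescence at 72 hours; hits defined by MAD score above 1.0 or below -1.0.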

Row | Sequence | median seed-adjusted z-score
1 | ACCUCAACUCGGCACUGGATT against NEUROG3 | inactive: 0.212
2 | CAUGGACCCUGGUUACAAATT against SUFU | inactive: -0.263
3 | CGGCACAACCUAUCCCUCATT against FOXN1 | inactive: 0.226
4 | GUUGUUCCCUAAUGGGUUATT against GDPD4 | inactive: 0.0109
5 | AGAGCAUUCACAAACUGAATT against RBM8A | inactive: 0
6 | GAUCAAGUCUAACUACCCATT against ZNF160 | inactive: -0.454
7 | CCUGUAGAUUUGUCAACUATT against RANBP2 | active: 1.53
8 | GGCUAAUACUGGAAUUGCUTT against SLC38A2 | active: -1.04
9 | GACAUUGCUAUGACAGAUATT against FKBP7 | inactive: -0.053
10 | UGAUCAGGCAGGUUCAUAATT against GSTM5 | inactive: -0.861
11 | GAAGGGACGUGAGCUAUAATT against RSHL3 | inactive: -0.407
12 | GGAGGAUGAGUGACGAGUUTT against BAD | inactive: 0
13 | GGCUGAAGGACUUACGACUTT against INTS6 | inactive: -0.0163
14 | GCUCUGUACCAUUUCAGCATT against KLK1 | inactive: -0.216
15 | CGGUUGCUGUGGACUCUUATT against ALG12 | inactive: -0.401
16 | GCCCACAUGUUUAAGGACATT against KCTD9 | active: 1.31
17 | GAGUUCCACUUCAUGCAAATT against CABC1 | inactive: -0.197
18 | UGUUGACACUUUUAUCCAATT against ANAPC11 | inactive: -0.581
19 | CGGUCCAGUUUGUAUCGGATT against ZFP64 | inactive: -0.659
20 | GGCGAUGAACAAUAUCCUATT against FAP | inactive: -0.258
21 | GGCUCUUUCAAGAUAGUAATT against AHR | inactive: -0.0422
22 | GGUGCUCAGCAAAUGCCUATT against CRCT1 | inactive: -0.146

As a short view, part of the list above:
Row | Sequence | median seed-adjusted z-score
9 | GACAUUGCUAUGACAGAUATT against FKBP7 | inactive: -0.053
10 | UGAUCAGGCAGGUUCAUAATT against GSTM5 | inactive: -0.861
11 | GAAGGGACGUGAGCUAUAATT against RSHL3 | inactive: -0.407

(next part)

Row | Sequence | median seed-adjusted z-score
23 | ACAUAUGAACGAACCCUGATT against GEM | inactive: 0.018
24 | CAAGACAUGCUUUAAAUGUTT against ZCCHC3 | inactive: -0.849
25 | AUUUGUUGGUUGUCGAAUATT against GPR143 | inactive: 0.366
26 | CCAAUUCUACAAAAGCAAATT against SRD5A3 | inactive: -0.165
27 | GGAUGUUGACUGCCUUGAATT against CCNE1 | inactive: -0.693
28 | GGAGAUCUUUCACCUACAATT against ZNF658 | inactive: 0.091
29 | GAACAAUGCUGUACCAGCATT against INS | inactive: 0
30 | GAGUGGACGGUUUAUCAUATT against TXNDC1 | inactive: 0.458
31 | GGAAAACUGCGUACUCAUATT against PSMD11 | inactive: -0.156
32 | GGACAAGGAGUGUCGGAGATT against ZFYVE21 | inactive: -0.186
33 | GGUAGUGCCUGUUUGGAUATT against CYP4F2 | inactive: -0.387
34 | GGAUGUAUUCUGACGAUGATT against CLASP1 | inactive: 0.0472
35 | GCGACUACGUGAUUGGAAUTT against KCNK17 | inactive: -0.579
36 | CAACGAGAAUGACUGCUGATT against PTPDC1 | inactive: -0.191
37 | GCCUGUGAAAUGUAUACUATT against ESCO1 | inactive: 0.755
38 | CGGAAUUAGUGUUAUCCAUTT against CEBPG | inactive: -0.561
39 | GCAGUCCUCCAUUAAGGUATT against NR4A2 | inactive: -0.654
40 | GGGAUUUCGCUUCUACUCATT against FCRL5 | inactive: -0.138
41 | AAUCGAGAGUGGUACCAGATT against PDE4C | inactive: 0.565
42 | GGAUUUAUACAGUGCACUATT against CPVL | inactive: 0.334
43 | GCAAGACAAGUGAAGUCAATT against CNBP | active: -1.14
44 | CAACCAUUCUUAGUAAGAUTT against CCNC | inactive: -0.606

Row | Sequence | median seed-adjusted z-score
45 | AGACUACCAGGAUAACAAATT against EIF1AX | inactive: 0.878
46 | UGGUGCUGUUGGUAAAACATT against CDC42 | inactive: -0.0938
47 | GAAUCGGCGUGAUAACCAUTT against SLC34A2 | inactive: 0
48 | GGAUAAUGAUGACGGGAGATT against SYT9 | inactive: 0.0419
49 | CAGGUCGACUGAUAGAUCATT against DDX42 | active: -2.13
50 | GCCCAGCUAUGUGACUUCATT against CLTB | inactive: 0.319
51 | CGACACCAGGAGUACCUCUTT against IKBKE | inactive: 0.122
52 | GCAUAUGAUUUUAUGGUAATT against FBXW7 | inactive: 0
53 | GCUUUACCGUGAACCUCCATT against PKLR | inactive: 0.587
54 | GGAUACAGACGAUACCGAATT against USP8 | inactive: 0.743
55 | GGAACGAGAUGAUCAUGUUTT against SYT13 | inactive: 0.275
56 | CAUCAUUACAUAUGCGGUATT against MFSD2 | inactive: -0.325
57 | GGUUUAGGAAGGAAACGAATT against VENTX | inactive: 0.669
58 | CUCCAUGGAUUAUGCUAUATT against ZNF398 | inactive: 0.119
59 | CCUCAACUCUCUACGCUUUTT against KIFC1 | inactive: 0.0417
60 | GGUAAAACCUUCAACCGCATT against ZNF584 | inactive: 0.172
61 | GUUGUGGUCUGAUCAGUUATT against TUBA1A | inactive: 0.284
62 | CAACUAUCAUGCUUCGGAUTT against SPOP | inactive: 0.000304
63 | AAAGUACAUUGUCCAAUCATT against ADPRH | inactive: -0.406
64 | CAGUGGACAUUGUCAAGCATT against PARP14 | inactive: -0.289
65 | CAACGAUAUUUGGAUAUCUTT against DPP8 | inactive: -0.0209
66 | GGUGGUCGGAGAUACCAAATT against UCP2 | inactive: -0.111

Row | Sequence | median seed-adjusted z-score
67 | CAUGCAAUCUAUCUCAUUUTT against SHC1 | inactive: 0.0401
68 | AGGCAGAGCUGGUACGACUTT against B3GAT3 | inactive: -0.00603
69 | AUACGGCUCUAACAGAUUATT against DBI | inactive: 0.0661
70 | GGUUUACCAUGGACCAGGATT against PNLIPRP3 | inactive: -0.287
71 | GAUCAGGAGUCCUUCAAUATT against RAB1A | inactive: 0.395
72 | GGACUGUGACGACAUCUAUTT against MFAP4 | inactive: -0.28
73 | GGAGCAGGAUAGUGCCUUUTT against PML | inactive: -0.415
74 | GCAUGAUCUAGAUCGAGUATT against UQCRFS1 | active: -1.28
75 | GCGUGACCGUUCUCUUAUUTT against NUDT14 | inactive: 0.479
76 | GCCUAUGACCUUCUACUUUTT against SLC31A1 | inactive: 0
77 | CAAUGGGAUUGAGAUCAAATT against EIF2C1 | inactive: 0.215
78 | GUGCUACUUUGGACGUAAATT against SEC23B | inactive: 0.48
79 | AGCCUGAAAGUAUCCGUAATT against CLTA | inactive: 0.243
80 | AGCCUUCACUCAACUCUCATT against ZNF250 | inactive: -0.00985
81 | GGAUUGGACCCUUCCAAGATT against CRHBP | inactive: -0.0443
82 | GGAGAGUGCUACAAGGUGATT against COL6A2 | inactive: 0.0119
83 | ACAUAUAGGUAUCGACCAATT against PRICKLE2 | active: -1.12
84 | CCGGUGAAAUUUCAUUCUATT against TRIM58 | inactive: -0.582
85 | GAAGCUAUAGAAAGGUUAATT against RAD23B | inactive: 0.639
86 | CUACAUGAAUAGCAGUAAATT against FMNL2 | inactive: 0.293
87 | GCGAAAUGACUUAUACUAUTT against HLTF | inactive: -0.00902
88 | GCCUACCCAUUUGUGAACATT against PEX12 | inactive: -0.129

Shown with tabs: part of the list above.
Row	Sequence	median seed-adjusted z-score
72	GGACUGUGACGACAUCUAUTT against MFAP4	inactive: -0.28
73	GGAGCAGGAUAGUGCCUUUTT against PML	inactive: -0.415
74	GCAUGAUCUAGAUCGAGUATT against UQCRFS1	active: -1.28
75	GCGUGACCGUUCUCUUAUUTT against NUDT14	inactive: 0.479
76	GCCUAUGACCUUCUACUUUTT against SLC31A1	inactive: 0

Going on with the list:

Row | Sequence | median seed-adjusted z-score
89 | GGCUACCUGUGCUACUCAGTT against KRTAP23-1 | inactive: 0.647
90 | CAAGCACUGUCGCAAGAAATT against MEGF6 | inactive: 0
91 | GGAUGAAGGUAGUUACGUUTT against RAVER2 | inactive: -0.258
92 | GAAUUUUCUUCAUCACAUATT against INSL6 | inactive: 0.777
93 | GCAUGAGGCUCUUCACCAATT against USP2 | inactive: -0.0321
94 | CAGAUAUUUUAACACUGAATT against RAD51L1 | inactive: 0
95 | GUAUAAAGGUGACAUAUAUTT against HSPA4 | inactive: 0.143
96 | CGAUCUCAGCAGGCCUAUATT against GALT | inactive: 0.484
97 | GGGAAAUGUUGAAGCGCCATT against GRINL1A | inactive: 0
98 | CAAUCUAUGAGAUUCGUAATT against GJD2 | inactive: -0.229
99 | CAGCGAUGUUGGUUAGUGATT against PDS5A | inactive: -0.29
100 | GCAAGAUUGAAACCAUAGATT against HNRNPA3 | inactive: 0.915
101 | GAAAUACCCUAUUACCAAATT against MED26 | active: -1.86
102 | GGGUGUCUGCGAUUAUCUUTT against WDFY1 | inactive: 0.979
103 | CUGUUAGAAUGAUUGCUGATT against GJA3 | inactive: 0.833
104 | CAUUAGAAAUGUUGAGGUUTT against PCGF5 | inactive: 0.25
105 | GCAGUGAAAUUUUGGAGGUTT against ZSCAN10 | inactive: 0
106 | GGAGCGAAAGAUUGCCUAATT against STAM2 | inactive: -0.24
107 | AGAACUCACCUCCUGAUUATT against YY1 | active: 1.94
108 | CCAUGGGCUUGAUUGCCUUTT against CD1D | inactive: -0.579
